# According to PMC3236198:
# Protein sequences, listed by entry. Tags and fused reporters are not part of them. Lines headed by an entry give the natural chain unless they say otherwise; changes in a name come on top.
# UniProt P0AGE0: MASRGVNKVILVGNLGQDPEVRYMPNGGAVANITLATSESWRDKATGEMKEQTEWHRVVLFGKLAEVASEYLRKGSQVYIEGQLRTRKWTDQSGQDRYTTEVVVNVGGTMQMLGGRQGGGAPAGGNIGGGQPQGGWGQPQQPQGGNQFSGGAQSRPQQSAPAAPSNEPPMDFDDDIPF
# Target: EcoSSB (Escherichia coli) (UniProt P0AGE0)
# Experiment: EMSA
# Settings: EMSA: 20 mM Tris-HCl pH 8.0, 50 mM NaCl, 5% glycerol, 50 µg/ml BSA, 4 °C, 30 min, 1 pmol DNA with 0.2, 2 or 10 pmol SSB in 15 µl; recombinant protein; label: 5'-32P; single-stranded DNA
sequence,measurement,value
GCACTAGTGCGGATAGCCCCGTGTTGTTGTCTGACCCCCGACCCCGACGGCAATGCGGGGCAATCCCCTGGAGGCCTGC [79mer ssDNA],binding result,binds

# Construct, isoform or probe ends are uncertain for at least one entry. At least one verdict rests on a figure or table, not on a statement of the authors.
